Measurements reported in PMC9334269.

Amino acid sequences for entries named in this document (tags omitted).
UniProt Q86WV6: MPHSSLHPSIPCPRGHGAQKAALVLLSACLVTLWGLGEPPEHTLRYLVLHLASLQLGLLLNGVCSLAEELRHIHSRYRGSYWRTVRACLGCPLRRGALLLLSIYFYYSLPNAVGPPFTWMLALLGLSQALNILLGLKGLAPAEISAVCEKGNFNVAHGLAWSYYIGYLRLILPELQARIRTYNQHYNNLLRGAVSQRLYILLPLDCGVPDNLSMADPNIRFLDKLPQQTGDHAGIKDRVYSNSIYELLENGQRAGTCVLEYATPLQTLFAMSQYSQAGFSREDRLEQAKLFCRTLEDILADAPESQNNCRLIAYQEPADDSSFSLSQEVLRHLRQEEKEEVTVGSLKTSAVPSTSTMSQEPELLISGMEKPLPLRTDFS
UniProt Q13772: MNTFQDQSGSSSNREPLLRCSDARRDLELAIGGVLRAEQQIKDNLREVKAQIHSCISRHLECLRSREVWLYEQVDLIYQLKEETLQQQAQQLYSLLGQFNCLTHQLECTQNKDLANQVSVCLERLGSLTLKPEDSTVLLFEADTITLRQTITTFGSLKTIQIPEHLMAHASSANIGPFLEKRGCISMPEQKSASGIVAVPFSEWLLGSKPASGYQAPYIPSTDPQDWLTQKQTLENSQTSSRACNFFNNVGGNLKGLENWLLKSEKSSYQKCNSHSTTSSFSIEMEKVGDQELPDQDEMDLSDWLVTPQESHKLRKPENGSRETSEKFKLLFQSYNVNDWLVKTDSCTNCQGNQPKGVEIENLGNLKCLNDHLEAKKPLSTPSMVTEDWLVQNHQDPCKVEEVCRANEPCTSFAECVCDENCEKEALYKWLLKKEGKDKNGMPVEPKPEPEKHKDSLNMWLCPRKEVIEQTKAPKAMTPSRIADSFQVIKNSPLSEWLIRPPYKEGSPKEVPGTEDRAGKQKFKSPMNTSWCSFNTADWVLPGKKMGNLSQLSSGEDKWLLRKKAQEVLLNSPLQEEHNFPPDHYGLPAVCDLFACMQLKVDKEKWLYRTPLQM

Experiments:
[1] = molecular target: endogenous STING (human PBMCs) (human (endogenous in PBMCs)) (UniProt Q86WV6); assay: co-IP + affinity purification with mass spectrometry; PBMCs from healthy subjects; IP with anti-STING and anti-NCOA4, immunoblot; anti-STING immunoprecipitates also analysed by LC-MS/MS
[2] = molecular target: endogenous STING (human PBMCs) (human (endogenous in PBMCs)) (UniProt Q86WV6); assay: co-IP + affinity purification with mass spectrometry; PBMCs from patients with sepsis; IP with anti-STING and anti-NCOA4, immunoblot; anti-STING immunoprecipitates also analysed by LC-MS/MS

- binding [2]: binds
Substance: endogenous NCOA4 (human PBMCs) (from UniProt Q13772 1-614)
- binding [1]: no binding (only PBMCs from healthy subjects)

No constants are given. Whether binding was seen depends on the method and setting. Binding seen in cells or lysates may run through a third protein. Here binding means that the protein was enriched with, or labelled near, the bait; the list need not be complete. For some assays here: No binding means not detected with the bait.
